Assay results reported in ChEMBL document CHEMBL1201862, “PubChem BioAssay data set” (2004).

Protein sequences, listed by entry. Tags and fused reporters are not part of them.
UniProt P11712, whole entry: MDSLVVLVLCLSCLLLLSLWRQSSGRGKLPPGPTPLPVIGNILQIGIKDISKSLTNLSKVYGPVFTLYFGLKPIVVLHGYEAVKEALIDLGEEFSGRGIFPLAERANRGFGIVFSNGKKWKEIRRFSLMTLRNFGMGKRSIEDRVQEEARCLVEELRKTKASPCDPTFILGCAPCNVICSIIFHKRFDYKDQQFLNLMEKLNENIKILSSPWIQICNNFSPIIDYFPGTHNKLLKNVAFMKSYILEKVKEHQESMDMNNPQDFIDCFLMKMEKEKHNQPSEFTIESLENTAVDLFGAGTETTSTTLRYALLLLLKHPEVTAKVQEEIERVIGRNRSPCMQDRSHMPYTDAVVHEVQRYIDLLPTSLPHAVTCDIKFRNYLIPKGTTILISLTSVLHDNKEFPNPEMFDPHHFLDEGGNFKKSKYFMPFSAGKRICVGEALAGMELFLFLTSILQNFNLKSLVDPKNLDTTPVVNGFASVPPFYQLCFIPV

Target: Cytochrome P450 2C9 (Homo sapiens, UniProt P11712)

`CC12CC[C@@H]3c4ccc(OS(=O)(=O)O)cc4CC[C@H]3C1CCC2=O` (stereo partly specified) [ESTRONE SULFURIC ACID] was tested, and the AC50 was “inconclusive”.
